# Measurements: the supplement of paper PMC8728848
# The list shows a part of the results.
# B1: BabA (Helicobacter pylori), O52269_HELPY (protein)
# chain: AEDDGFYMSAGYQIGEAAQMVKNTKGIQELSDNYENLSNLLTRYSTLNTLIKLSADPSAVNAARENLGASAKNLIGDTKNSPAYQAVLLAINAAVGFWNVVGYVTQCGGNANGQKSTSSTTIFNNEPGYRSTSITCSLNGHMPGYYGPMSIENFKKLNEAYQILQTALKNGLPALKENNGTVNVTYSYTCSGEGNDNCSLQTTGVTNQNNGTKTETQTIDGKSVTTTISSKVVDSQ
# What was measured:
# Experiment in all cases: glycan array binding signal (z-score within array); higher = stronger binding
# Details in all cases: glycan notation: IUPAC condensed, linker removed
# [1] = target: Gal(b1-4)GlcNAc(b1-3)Gal(b1-4)GlcNAc(b1-3)Gal(b1-4)GlcNAc(b1-3)Gal(b1-4)GlcNAc(b1-2)Man(a1-3)[Gal(b1-4)GlcNAc(b1-3)Gal(b1-4)GlcNAc(b1-3)Gal(b1-4)GlcNAc(b1-3)Gal(b1-4)GlcNAc(b1-2)Man(a1-6)]Man(b1-4)GlcNAc(b1-4)[Fuc(a1-6)]GlcNAc
# How it was run: (§1)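 Glycan array binding is given as a within-array Z-score, which can be read as non-binding when negative. The arrays, 3228 of them, came from the Consortium for Functional Glycomics database and were retained only where the protein sequence was available. Z-scores were averaged across arrays of the same protein sequence at different concentrations or buffers and across linkers.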
# [2] = target: Gal(b1-4)GlcNAc(b1-3)Gal(b1-4)GlcNAc(b1-3)Gal(b1-4)GlcNAc(b1-3)Gal(b1-4)GlcNAc(b1-2)[Gal(b1-4)GlcNAc(b1-3)Gal(b1-4)GlcNAc(b1-3)Gal(b1-4)GlcNAc(b1-3)Gal(b1-4)GlcNAc(b1-6)]Man(a1-6)[Gal(b1-4)GlcNAc(b1-3)Gal(b1-4)GlcNAc(b1-3)Gal(b1-4)GlcNAc(b1-3)Gal(b1-4)GlcNAc(b1-2)Man(a1-3)]Man(b1-4)GlcNAc(b1-4)[Fuc(a1-6)]GlcNAc
# How it was run: as §1
# [3] = target: Gal(b1-4)GlcNAc(b1-3)Gal(b1-4)GlcNAc(b1-3)Gal(b1-4)GlcNAc(b1-3)Gal(b1-4)GlcNAc(b1-3)Gal(b1-4)GlcNAc(b1-2)Man(a1-3)[Gal(b1-4)GlcNAc(b1-3)Gal(b1-4)GlcNAc(b1-3)Gal(b1-4)GlcNAc(b1-3)Gal(b1-4)GlcNAc(b1-3)Gal(b1-4)GlcNAc(b1-2)Man(a1-6)]Man(b1-4)GlcNAc(b1-4)GlcNAc
# How it was run: as §1
# [4] = target: Gal(b1-4)GlcNAc(b1-3)Gal(b1-4)GlcNAc(b1-3)Gal(b1-4)GlcNAc(b1-3)Gal(b1-4)GlcNAc(b1-3)Gal(b1-4)GlcNAc(b1-2)Man(a1-3)[Gal(b1-4)GlcNAc(b1-3)Gal(b1-4)GlcNAc(b1-3)Gal(b1-4)GlcNAc(b1-3)Gal(b1-4)GlcNAc(b1-3)Gal(b1-4)GlcNAc(b1-2)Man(a1-6)]Man(b1-4)GlcNAc(b1-4)[Fuc(a1-6)]GlcNAc
# How it was run: as §1
# [5] = target: Gal(b1-4)GlcNAc(b1-3)Gal(b1-4)GlcNAc(b1-3)Gal(b1-4)GlcNAc(b1-3)Gal(b1-4)GlcNAc(b1-3)Gal(b1-4)GlcNAc(b1-2)[Gal(b1-4)GlcNAc(b1-3)Gal(b1-4)GlcNAc(b1-3)Gal(b1-4)GlcNAc(b1-3)Gal(b1-4)GlcNAc(b1-3)Gal(b1-4)GlcNAc(b1-6)]Man(a1-6)[Gal(b1-4)GlcNAc(b1-3)Gal(b1-4)GlcNAc(b1-3)Gal(b1-4)GlcNAc(b1-3)Gal(b1-4)GlcNAc(b1-3)Gal(b1-4)GlcNAc(b1-2)Man(a1-3)]Man(b1-4)GlcNAc(b1-4)[Fuc(a1-6)]GlcNAc
# How it was run: as §1
# [6] = target: Gal(b1-4)GlcNAc(b1-3)Gal(b1-4)GlcNAc(b1-3)Gal(b1-4)GlcNAc(b1-3)Gal(b1-4)GlcNAc(b1-3)Gal(b1-4)GlcNAc(b1-3)Gal(b1-4)GlcNAc(b1-2)Man(a1-3)[Gal(b1-4)GlcNAc(b1-3)Gal(b1-4)GlcNAc(b1-3)Gal(b1-4)GlcNAc(b1-3)Gal(b1-4)GlcNAc(b1-3)Gal(b1-4)GlcNAc(b1-3)Gal(b1-4)GlcNAc(b1-2)Man(a1-6)]Man(b1-4)GlcNAc(b1-4)GlcNAc
# How it was run: as §1
# [7] = target: Gal(b1-4)GlcNAc(b1-3)Gal(b1-4)GlcNAc(b1-3)GalNAc
# How it was run: as §1
# [8] = target: Gal(b1-4)GlcNAc(b1-3)Gal(b1-4)GlcNAc(b1-3)[Gal(b1-4)GlcNAc(b1-3)Gal(b1-4)GlcNAc(b1-6)]GalNAc
# How it was run: as §1
# [9] = target: Gal(b1-4)GlcNAc(b1-3)Gal(b1-4)GlcNAc(b1-6)[Gal(b1-3)]GalNAc
# How it was run: as §1
# [10] = target: Gal(b1-4)GlcNAc(b1-3)Gal(b1-4)[Fuc(a1-3)]GlcNAc(b1-3)Gal(b1-4)[Fuc(a1-3)]GlcNAc
# How it was run: as §1
# [11] = target: Gal(b1-4)GlcNAc(b1-3)GalNAc
# How it was run: as §1
# [12] = target: Gal(b1-4)GlcNAc(b1-3)[Fuc(a1-3)GlcNAc(b1-6)]Gal(b1-4)Glc
# How it was run: as §1
# [13] = target: Gal(b1-4)GlcNAc(b1-3)[Gal(b1-4)GlcNAc(b1-6)]Gal(b1-4)GlcNAc
# How it was run: as §1
# [14] = target: Gal(b1-4)GlcNAc(b1-3)[GlcNAc(b1-6)]Gal(b1-4)GlcNAc
# How it was run: as §1
# [15] = target: Gal(b1-4)GlcNAc(b1-6)Gal(b1-4)GlcNAc
# How it was run: as §1
# [16] = target: Gal(b1-4)GlcNAc(b1-6)Gal(b1-4)GlcNAc(b1-6)GalNAc
# How it was run: as §1
# [17] = target: Gal(b1-4)GlcNAc(b1-6)GalNAc
# How it was run: as §1
# [18] = target: Gal(b1-4)GlcNAc(b1-6)[Gal(b1-3)]GalNAc
# How it was run: as §1
# [19] = target: Gal(b1-4)GlcNAc(b1-6)[Gal(b1-4)GlcNAc(b1-3)]GalNAc
# How it was run: as §1
# Gal(b1-4)GlcNAc6P = target: Gal(b1-4)GlcNAc6P
# How it was run: as §1
# Gal(b1-6)Gal = target: Gal(b1-6)Gal
# How it was run: as §1
# Gal3S(b1-3)GalNAc = target: Gal3S(b1-3)GalNAc
# How it was run: as §1
# Gal3S(b1-3)GlcNAc = target: Gal3S(b1-3)GlcNAc
# How it was run: as §1
binder,measurement,setting,value
B1,glycan array binding signal (z-score),[1],2.38
same,glycan array binding signal (z-score),[2],2.33
same,glycan array binding signal (z-score),[3],3.86
same,glycan array binding signal (z-score),[4],1.89
same,glycan array binding signal (z-score),[5],1.28
same,glycan array binding signal (z-score),[6],2.17
same,glycan array binding signal (z-score),[7],1.12
same,glycan array binding signal (z-score),[8],4.39
same,glycan array binding signal (z-score),[9],0.79
same,glycan array binding signal (z-score),[10],-0.094
same,glycan array binding signal (z-score),[11],-0.402
same,glycan array binding signal (z-score),[12],-0.255
same,glycan array binding signal (z-score),[13],-0.596
same,glycan array binding signal (z-score),[14],0.245
same,glycan array binding signal (z-score),[15],-1.07
same,glycan array binding signal (z-score),[16],-0.337
same,glycan array binding signal (z-score),[17],-0.445
same,glycan array binding signal (z-score),[18],0.301
same,glycan array binding signal (z-score),[19],-0.568
same,glycan array binding signal (z-score),Gal(b1-4)GlcNAc6P,-0.11
same,glycan array binding signal (z-score),Gal(b1-6)Gal,-0.155
same,glycan array binding signal (z-score),Gal3S(b1-3)GalNAc,0.171
same,glycan array binding signal (z-score),Gal3S(b1-3)GlcNAc,-0.131

# Some of the entries above in another layout:
binder | measurement | setting | value
B1 | glycan array binding signal (z-score) | Gal(b1-4)GlcNAc6P | -0.11
same | glycan array binding signal (z-score) | Gal(b1-6)Gal | -0.155
